Laboratory results: PubChem BioAssay AID686943 (Drosophila RNAi Screening Center, 2013)

Aim: 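Knockdowns that increase or decrease active ERK after insulin receptor stimulation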 (primary screen)
Cells: Drosophila S2R+ haemocyte-like cells expressing YFP-tagged ERK (Rolled)
Reagent: long dsRNA against Drosophila genes
Challenge: insulin stimulation versus unstimulated cells; dose and duration not given
Read-out: 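Per-plate z-scores of phospho-ERK immunostaining normalised to YFP-tagged ERK, measured with and without insulin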
Direction: replicate 1, z-score of dpERK with insulin and replicate 2, z-score of dpERK with insulin: higher = more active ERK per ERK-YFP after insulin; replicate 1, z-score of dpERK under basal conditions: higher = more basal active ERK per ERK-YFP; replicate 1, z-score of ERK-YFP with insulin: higher = more YFP-tagged ERK signal
In all, the deposit lists about 23,000 reagents; below is a random part of those that have a named target and a result. 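Extra replicates exist only for a retested subset of genes; insulin dose and duration not given; both raised and lowered dpERK matter.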 Reagents against one gene are numbered here. Names joined by + are all predicted targets of the reagent. No sequences are given here. The record does not give: the amount of reagent, the time to read-out.

The opening 2 records, ahead of the listing:
target gene | reagent | replicate 1, z-score of dpERK with insulin | replicate 2, z-score of dpERK with insulin | replicate 1, z-score of dpERK under basal conditions | replicate 1, z-score of ERK-YFP with insulin
CG7794 | 1 | -0.25 | -0.02 | 0.49 | -0.3
CG12541 | 1 | 1.33 | 0.68 | 0.4 | -0.21

Main list, from the first entry:
target gene | reagent | replicate 1, z-score of dpERK with insulin | replicate 2, z-score of dpERK with insulin | replicate 1, z-score of dpERK under basal conditions | replicate 1, z-score of ERK-YFP with insulin
CG7794 | 1 | -0.25 | -0.02 | 0.49 | -0.3
CG12541 | 1 | 1.33 | 0.68 | 0.4 | -0.21
CG12541 | 2 | 0.17 | 0.04 | 0.3 | -0.43
mael (maelstrom) | 1 | 0.08 | 0.1 | -0.43 | 0.23
CLS (Cardiolipin synthase) | 1 | 0.14 | -0.45 | 0.31 | 0.38
Cka (Connector of kinase to AP-1) | 1 | -0.05 | 0.08 | 1.19 | -0.26
Cka (Connector of kinase to AP-1) | 2 | -5.09 | -1.93 | -0.4 | 0.62
mub (mushroom-body expressed) | 1 | -0.38 | -0.12 | 0.22 | 0.5
Tcs6 + PIG-P | 1 | -0.52 | -0.51 | 0.45 | 0.74
Tcs6 + PIG-P | 2 | -0.22 | -0.04 | 0.46 | 0.42
RhoGAP68F (Rho GTPase activating protein at 68F) | 1 | -1.16 | 0.02 | -0.28 | 0.06
CG17266 | 1 | 2.23 | -0.46 | 0.15 | -1.49
CG17266 | 2 | 0.62 | -0.54 | -1.11 | -0.28
CG12702 | 1 | 0.17 | 0.26 | 0.61 | 0.68
Obp56e (Odorant-binding protein 56e) | 1 | 0.23 | 0.02 | 0.38 | 0.16
CG5662 | 1 | -0.2 | 0.25 | -0.11 | -0.15
eIF4E3 (eukaryotic translation initiation factor 4E3) | 1 | -0.05 | -0.13 | 0.5 | 0.12
CG42709 | 1 | 0.05 | -1.26 | -0.4 | -0.04
CG7714 | 1 | 0.97 | 0.22 | -0.88 | -0.5
Gr93b (Gustatory receptor 93b) | 1 | 0.05 | 0.23 | -1.39 | 0.49
CG5888 | 1 | -0.57 | -0.74 | -0.43 | -1.44
CG13671 | 1 | 0.76 | 1.17 | -0.26 | 0.52
CG2310 | 1 | 0.56 | 0.04 | 1.75 | 0.4
